Data reported in PMC4315410, “A New PAMPA Model Proposed on the Basis of a Synthetic Phospholipid Membrane” (PLoS ONE, 2015).

Experiments:
Assay type in all cases: in vitro ADME
Details in all cases: for Papp at 16 h: PAMPA, read-out: P e
[1] = PAMPA with synthetic phospholipid membrane, octyl chain (C8)
[2] = PAMPA with synthetic phospholipid membrane, lauryl chain (C12)
[3] = PAMPA with synthetic phospholipid membrane, decyl chain (C10)
Description: The PAMPA evolution instrument from pION Inc. was used in this study. In PAMPA, a “sandwich” structure was formed by a 96-well microtiter plate and a 96-well filter plate from Millipore (IPVH, 125 μm thick filter, 0.45 μm pore), then wetted with a 4 μl 2% w/v phospholipid compound solution in n-dodecane.
The stock solutions of the drug samples were prepared at 10 mM concentrations in DMSO and stored at 0°C before use. Before being added to a 96-well filter plate, the stock solution was diluted first with buffer to achieve a final sample concentration of 10∼50 μM and to reduce the DMSO concentration below 1% (v/v).
The PAMPA plate was filled with a 300 μl diluted drug solution to prepare the “donor” wells, and the 96-well filter plate containing a synthetic phospholipid membrane was then placed on the donor wells. The “acceptor” wells were filled with 200 μl of buffer solution and placed on top of the “sandwich”, and the PAMPA instruments were incubated at 25°C in a sealed and saturated humidity container for a specified time. After reaching the permeation time, the PAMPA plate sandwich was separated, and the amount of drugs in both the donor and acceptor compartments were measured by comparing the experimental spectra with the UV spectrum (220∼400 nm) obtained from reference standards.
The P e data for the test compounds were calculated using equation [28]: Pe=−2.303VaVd/(Va+Vd)A(t−t0)lg{1−(Va+Vd)Ca(t)/VdSCd(0)} where S=VaCa(t)/VdCd(0)+Cd(t)/Cd(0) Va is the acceptor well volume (i.e., 0.2 ml in this study), Vd is the donor well volume (i.e., 0.3 ml in this study), A is the filter area (i.e., 0.2826 cm^2 in this study), t0 is the steady-state time to fill the membrane (i.e., average 1140 s in this study), t is the permeation time, Ca(t) is the concentration of the drug in the acceptor well at time t, Cd(t) is the concentration of drug in the donor well at time t, and Cd(0) is the concentration of the drug in the donor well at the start of the experiment. The factor S was the fraction of samples remaining in the donor and the acceptor wells at time t.
The P e of each compound was measured at varying incubation times (4–20 h) and pH gradients (4.6–9.32). In the incubation time assays, the pH was 7.4 in both the donor and acceptor wells. In the pH-gradient assays, the pH of the drug solutions was varied using NaOH-treated universal buffer (pION Inc.) in the donor wells, and the pH in the acceptor solution was pH 7.4 [15]. In addition, the incubation time in the pH-gradient test assays was 16 h.

P e ([1]; C8, donor pH 8.2, acceptor pH 7.4, 16 h): 3.8 ×10^–6 cm/s | Papp at 16 h ([1]; C8, donor pH 6.57, acceptor pH 7.4, 16 h): 3 ×10⁻⁶ cm/s | Papp at 16 h ([1]; C8, donor pH 9.32, acceptor pH 7.4, 16 h): 4.4 ×10⁻⁶ cm/s | Papp at 16 h ([1]; pH 7.4, C8 membrane, incubation time 16 h, pH 7.4 donor and acceptor, 25°C): 3.8 ± 0.4 ×10⁻⁶ cm/s | P e ([2]; C12, donor pH 8.2, acceptor pH 7.4, 16 h): 3.5 ×10^–6 cm/s | P e ([2]; C12, donor pH 9.32, acceptor pH 7.4, 16 h): 4.4 ×10^–6 cm/s | Papp at 16 h ([2]; C12, donor pH 6.57, acceptor pH 7.4, 16 h): 3.3 ×10⁻⁶ cm/s | Papp at 16 h ([2]; pH 7.4, C12 membrane, incubation time 16 h, pH 7.4 donor and acceptor, 25°C): 5.9 ± 0.5 ×10⁻⁶ cm/s | P e ([3]; C10, donor pH 9.32, acceptor pH 7.4, 16 h): 4.4 ×10^–6 cm/s | Papp at 16 h ([3]; C10, donor pH 4.98, acceptor pH 7.4, 16 h): 1.7 ×10⁻⁶ cm/s | Papp at 16 h ([3]; C10, donor pH 6.57, acceptor pH 7.4, 16 h): 3.2 ×10⁻⁶ cm/s | Papp at 16 h ([3]; C10, donor pH 8.2, acceptor pH 7.4, 16 h): 3.5 ×10⁻⁶ cm/s | Papp at 16 h ([3]; pH 7.4, C10 membrane, incubation time 16 h, pH 7.4 donor and acceptor, 25°C): 5.2 ± 0.4 ×10⁻⁶ cm/s
SMILES: CC(C)NCC(O)COc1ccc(CC(N)=O)cc1 (stereo not shown) [Atenolol]
